Source: publication PMC10942119, “S-nitrosylation of a receptor-like cytoplasmic kinase regulates plant immunity” (Science Advances, 2024)
Substitutions are numbered along the chain they refer to. No constants are given. Whether binding was seen depends on the method and setting. Binding seen in cells or lysates may run through a third protein. Some entries that bind do so weakly or less than the wild type. Sequences can lack the tags named with a protein.

Chains of the proteins cited; added tags and fusions are not shown. Residues count along the entry.
UniProt Q9FIJ0, residues 1-376: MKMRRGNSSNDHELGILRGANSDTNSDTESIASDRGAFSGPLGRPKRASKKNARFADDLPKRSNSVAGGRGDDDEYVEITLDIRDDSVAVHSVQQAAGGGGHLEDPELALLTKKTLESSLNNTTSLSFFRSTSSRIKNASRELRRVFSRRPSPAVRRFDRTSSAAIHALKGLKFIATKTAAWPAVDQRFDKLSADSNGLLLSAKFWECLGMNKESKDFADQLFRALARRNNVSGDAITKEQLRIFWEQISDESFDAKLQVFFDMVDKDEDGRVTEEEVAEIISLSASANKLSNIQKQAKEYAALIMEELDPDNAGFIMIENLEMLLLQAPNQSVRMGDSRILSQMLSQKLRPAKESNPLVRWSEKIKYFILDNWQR

How the values were obtained:
[1] = target: T1, BIK1-HA (HA-tagged BIK1 in transgenic Arabidopsis) (Arabidopsis (Col-0 cDNA)) (UniProt O48814); experiment: co-IP; FLAG-RB-N transiently expressed 16 hours in protoplasts from BIK1-HA or BIK1^C80A-HA plants; treated or not with 1 uM flg22, 10 uM GSNO or 200 uM cPTIO for 15 min; immunoprecipitation with anti-HA agarose, anti-FLAG immunoblot
T1 sequence: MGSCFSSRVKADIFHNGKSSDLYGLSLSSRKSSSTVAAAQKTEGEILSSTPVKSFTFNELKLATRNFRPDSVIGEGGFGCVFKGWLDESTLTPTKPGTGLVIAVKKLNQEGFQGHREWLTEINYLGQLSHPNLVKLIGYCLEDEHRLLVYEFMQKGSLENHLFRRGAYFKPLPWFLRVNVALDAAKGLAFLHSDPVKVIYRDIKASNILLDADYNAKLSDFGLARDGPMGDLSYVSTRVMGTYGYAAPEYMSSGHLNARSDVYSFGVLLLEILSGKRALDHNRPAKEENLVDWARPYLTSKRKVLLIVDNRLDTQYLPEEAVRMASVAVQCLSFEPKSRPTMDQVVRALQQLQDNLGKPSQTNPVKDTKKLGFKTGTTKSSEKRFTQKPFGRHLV

[2] = target: T2, BIK1^C80A-HA (HA-tagged BIK1 C80A in transgenic Arabidopsis) (Arabidopsis (Col-0 cDNA)) (UniProt O48814); experiment: as above
T2 sequence: T1 sequence with C80A

FLAG-RBOHD-N (FLAG-tagged RBOHD N terminus) (from UniProt Q9FIJ0 1-376) (domain or fragment)
binding [1]: binds | binding [2]: binds
